This passage reports binding results from publication PMC6876774.

Protein sequences, listed by entry. Tags and fused reporters are not part of them.
UniProt P21951: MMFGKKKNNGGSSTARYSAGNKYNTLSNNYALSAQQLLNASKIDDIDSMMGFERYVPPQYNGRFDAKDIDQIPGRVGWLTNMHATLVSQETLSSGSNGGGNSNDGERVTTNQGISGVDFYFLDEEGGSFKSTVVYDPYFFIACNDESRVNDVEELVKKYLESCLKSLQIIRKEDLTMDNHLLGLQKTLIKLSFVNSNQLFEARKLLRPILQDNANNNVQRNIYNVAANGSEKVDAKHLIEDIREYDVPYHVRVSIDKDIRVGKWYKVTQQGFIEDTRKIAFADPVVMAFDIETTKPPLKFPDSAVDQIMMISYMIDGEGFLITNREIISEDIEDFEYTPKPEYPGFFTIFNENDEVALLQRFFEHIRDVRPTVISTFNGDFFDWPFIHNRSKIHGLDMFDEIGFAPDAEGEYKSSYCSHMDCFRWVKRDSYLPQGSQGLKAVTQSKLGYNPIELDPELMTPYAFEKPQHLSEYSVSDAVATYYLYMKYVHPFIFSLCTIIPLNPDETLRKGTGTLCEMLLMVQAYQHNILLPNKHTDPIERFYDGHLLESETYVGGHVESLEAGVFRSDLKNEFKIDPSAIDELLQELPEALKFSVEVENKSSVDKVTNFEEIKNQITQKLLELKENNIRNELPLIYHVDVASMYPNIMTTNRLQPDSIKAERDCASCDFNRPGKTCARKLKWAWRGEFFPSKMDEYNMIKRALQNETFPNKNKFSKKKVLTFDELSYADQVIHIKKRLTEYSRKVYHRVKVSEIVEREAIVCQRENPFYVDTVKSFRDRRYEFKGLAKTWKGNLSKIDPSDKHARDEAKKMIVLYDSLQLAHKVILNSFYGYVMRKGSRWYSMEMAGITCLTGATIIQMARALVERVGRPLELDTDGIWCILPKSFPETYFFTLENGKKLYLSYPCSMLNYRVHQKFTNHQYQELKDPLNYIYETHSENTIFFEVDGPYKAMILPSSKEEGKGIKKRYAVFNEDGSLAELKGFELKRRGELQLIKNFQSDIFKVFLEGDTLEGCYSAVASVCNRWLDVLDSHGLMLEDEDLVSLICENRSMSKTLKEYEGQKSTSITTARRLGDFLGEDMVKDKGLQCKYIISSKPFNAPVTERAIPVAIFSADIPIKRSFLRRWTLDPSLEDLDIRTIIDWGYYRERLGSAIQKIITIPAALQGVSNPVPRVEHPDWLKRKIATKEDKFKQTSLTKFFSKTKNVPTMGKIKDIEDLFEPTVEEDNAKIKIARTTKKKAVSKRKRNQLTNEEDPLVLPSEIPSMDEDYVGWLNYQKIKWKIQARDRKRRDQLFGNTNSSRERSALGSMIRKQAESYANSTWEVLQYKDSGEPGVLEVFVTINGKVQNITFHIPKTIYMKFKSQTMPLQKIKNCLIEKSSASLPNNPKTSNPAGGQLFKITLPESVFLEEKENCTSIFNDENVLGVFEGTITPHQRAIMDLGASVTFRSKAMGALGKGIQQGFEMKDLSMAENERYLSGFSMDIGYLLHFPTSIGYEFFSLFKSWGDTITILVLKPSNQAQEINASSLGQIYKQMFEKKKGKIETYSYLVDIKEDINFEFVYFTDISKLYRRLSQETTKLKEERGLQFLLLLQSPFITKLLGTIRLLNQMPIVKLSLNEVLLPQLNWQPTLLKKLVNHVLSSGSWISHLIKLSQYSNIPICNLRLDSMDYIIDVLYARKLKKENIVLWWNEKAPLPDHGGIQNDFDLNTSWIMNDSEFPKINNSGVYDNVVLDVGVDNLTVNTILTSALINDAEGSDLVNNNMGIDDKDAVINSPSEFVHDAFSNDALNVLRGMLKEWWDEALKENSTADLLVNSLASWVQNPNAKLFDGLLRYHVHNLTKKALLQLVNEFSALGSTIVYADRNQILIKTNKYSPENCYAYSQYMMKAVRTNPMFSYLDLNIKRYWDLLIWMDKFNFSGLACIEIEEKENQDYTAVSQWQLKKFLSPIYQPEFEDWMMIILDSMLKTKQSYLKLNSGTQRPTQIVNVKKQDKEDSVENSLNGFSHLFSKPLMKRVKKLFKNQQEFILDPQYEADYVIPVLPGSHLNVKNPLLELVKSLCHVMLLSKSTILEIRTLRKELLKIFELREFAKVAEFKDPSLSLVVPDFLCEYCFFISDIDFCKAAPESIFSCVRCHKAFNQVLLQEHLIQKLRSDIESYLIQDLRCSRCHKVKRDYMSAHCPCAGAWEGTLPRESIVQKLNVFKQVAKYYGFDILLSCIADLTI

No constants are given. Whether binding was seen depends on the method and setting. Binding seen in cells or lysates may run through a third protein. Some binding calls cover weakened binding; strength is not graded here. Sequences can lack the tags named with a protein.

The target of this test is HA-tagged Pol2 (catalytic subunit of DNA polymerase epsilon) (budding yeast) (UniProt P21951). In words: co-IP; HA-tagged Pol2 immunoprecipitated from yeast extracts, Flag-tagged Smc5 detected with anti-Flag antibody; DNase added to remove DNA before immunoprecipitation; cells treated with HU or untreated.

B1: Flag-tagged Smc5 (subunit of the Smc5/6 complex) (protein, UniProt Q08204 1-1093)
chain: MTSLIDLGRYVERTHHGEDTEPRSKRVKIAKPDLSSFQPGSIIKIRLQDFVTYTLTEFNLSPSLNMIIGPNGSGKSTFVCAVCLGLAGKPEYIGRSKKVEDFIKNGQDVSKIEITLKNSPNVTDIEYIDARDETIKITRIITRSKRRSDYLINDYQVSESVVKTLVAQLNIQLDNLCQFLSQERVEEFARLKSVKLLVETIRSIDASLLDVLDELRELQGNEQSLQKDLDFKKAKIVHLRQESDKLRKSVESLRDFQNKKGEIELHSQLLPYVKVKDHKEKLNIYKEEYERAKANLRAILKDKKPFANTKKTLENQVEELTEKCSLKTDEFLKAKEKINEIFEKLNTIRDEVIKKKNQNEYYRGRTKKLQATIISTKEDFLRSQEILAQTHLPEKSVFEDIDIKRKEIINKEGEIRDLISEIDAKANAINHEMRSIQRQAESKTKSLTTTDKIGILNQDQDLKEVRDAVLMVREHPEMKDKILEPPIMTVSAINAQFAAYLAQCVDYNTSKALTVVDSDSYKLFANPILDKFKVNLRELSSADTTPPVPAETVRDLGFEGYLSDFITGDKRVMKMLCQTSKIHTIPVSRRELTPAQIKKLITPRPNGKILFKRIIHGNRLVDIKQSAYGSKQVFPTDVSIKQTNFYQGSIMSNEQKIRIENEIINLKNEYNDRKSTLDALSNQKSGYRHELSELASKNDDINREAHQLNEIRKKYTMRKSTIETLREKLDQLKREARKDVSQKIKDIDDQIQQLLLKQRHLLSKMASSMKSLKNCQKELISTQILQFEAQNMDVSMNDVIGFFNEREADLKSQYEDKKKFVKEMRDTPEFQSWMREIRSYDQDTKEKLNKVAEKYEEEGNFNLSFVQDVLDKLESEIAMVNHDESAVTILDQVTAELRELEHTVPQQSKDLETIKAKLKEDHAVLEPKLDDIVSKISARFARLFNNVGSAGAVRLEKPKDYAEWKIEIMVKFRDNAPLKKLDSHTQSGGERAVSTVLYMIALQEFTSAPFRVVDEINQGMDSRNERIVHKAMVENACAENTSQYFLITPKLLTGLHYHEKMRIHCVMAGSWIPNPSEDPKMIHFGETSNYSFD
Turning to B1, the binding entry is “binds”.
